Experimental data taken from paper PMC8523171, “The cooperative binding of TDP-43 to GU-rich RNA repeats antagonizes TDP-43 aggregation”.
The exact form of at least one protein or probe is not confirmed. At least one verdict was read from the data and is not stated in words by the source.

By UniProt entry, the sequences of proteins in these tests, tags left out. Residues count along the entry.
UniProt Q13148, 176-277: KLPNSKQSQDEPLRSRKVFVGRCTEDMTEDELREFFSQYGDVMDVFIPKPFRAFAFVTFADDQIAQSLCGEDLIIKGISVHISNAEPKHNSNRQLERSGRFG
UniProt Q13148, 101-192: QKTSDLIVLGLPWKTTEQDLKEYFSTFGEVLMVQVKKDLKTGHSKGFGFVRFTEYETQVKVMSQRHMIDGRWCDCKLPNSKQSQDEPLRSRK

Legend:
TDP-43 RRM2 (human) [1] = target: TDP-43 RRM2 (human) (UniProt Q13148); assay: ITC; conditions: no clear plateaus, at least tetramers possible, Kd not in material; ITC: 15 mM phosphate pH 6.8, 25 mM KCl, 1 mM TCEP, 25 C; recombinant protein; residues 176-277; protein details: His6 cleaved by TEV; single-stranded DNA
TDP-43 RRM2 (human) [2] = target: TDP-43 RRM2 (human) (UniProt Q13148); assay: NMR; conditions: lower affinity than RRM1; NMR: same buffer, 298 K (SEA-HSQC 310 K); recombinant protein; residues 176-277; protein details: His6 cleaved by TEV
TDP-43 RRM1 (human) = TDP-43 RRM1 (human) (UniProt Q13148); assay: NMR; conditions: NMR: same buffer, 298 K (SEA-HSQC 310 K); recombinant protein; residues 101-192; protein details: His6 cleaved by TEV

Sequence	binding result (TDP-43 RRM2 (human) [1])	binding result (TDP-43 RRM2 (human) [2])	binding result (TDP-43 RRM1 (human))
GTGTGTGTGTGTGTGTGTGTGTGT [(GT)12]	binds	–	–
GUGUGUGUGUGUGUGUGUGUGUGU [(GU)12]	–	binds	binds
